Measured values reported in publication PMC9134912.
Results are given in words; binding and its absence hold for the method and conditions named. Binding seen in cells or lysates may run through a third protein. Some results given as binding are weak or reduced against the parent protein; the word gives no strength.

Amino acid sequences for entries named in this document (tags omitted).
UniProt Q9GZV5: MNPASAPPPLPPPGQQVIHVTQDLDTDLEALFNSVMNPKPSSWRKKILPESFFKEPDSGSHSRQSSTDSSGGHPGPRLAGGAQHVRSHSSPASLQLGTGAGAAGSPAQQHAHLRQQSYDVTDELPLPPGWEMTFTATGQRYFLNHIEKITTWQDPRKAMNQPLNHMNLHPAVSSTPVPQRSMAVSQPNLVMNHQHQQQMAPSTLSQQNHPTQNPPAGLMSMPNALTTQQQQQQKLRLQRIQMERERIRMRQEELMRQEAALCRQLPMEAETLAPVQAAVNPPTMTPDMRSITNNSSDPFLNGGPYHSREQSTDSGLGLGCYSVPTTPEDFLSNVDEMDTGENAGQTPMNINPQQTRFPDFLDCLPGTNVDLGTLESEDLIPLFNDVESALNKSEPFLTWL

Target: T1, Ubiquitin-specific protease 1 (USP1) (human (endogenous in 143B and HOS)) (UniProt O94782)
T1 sequence: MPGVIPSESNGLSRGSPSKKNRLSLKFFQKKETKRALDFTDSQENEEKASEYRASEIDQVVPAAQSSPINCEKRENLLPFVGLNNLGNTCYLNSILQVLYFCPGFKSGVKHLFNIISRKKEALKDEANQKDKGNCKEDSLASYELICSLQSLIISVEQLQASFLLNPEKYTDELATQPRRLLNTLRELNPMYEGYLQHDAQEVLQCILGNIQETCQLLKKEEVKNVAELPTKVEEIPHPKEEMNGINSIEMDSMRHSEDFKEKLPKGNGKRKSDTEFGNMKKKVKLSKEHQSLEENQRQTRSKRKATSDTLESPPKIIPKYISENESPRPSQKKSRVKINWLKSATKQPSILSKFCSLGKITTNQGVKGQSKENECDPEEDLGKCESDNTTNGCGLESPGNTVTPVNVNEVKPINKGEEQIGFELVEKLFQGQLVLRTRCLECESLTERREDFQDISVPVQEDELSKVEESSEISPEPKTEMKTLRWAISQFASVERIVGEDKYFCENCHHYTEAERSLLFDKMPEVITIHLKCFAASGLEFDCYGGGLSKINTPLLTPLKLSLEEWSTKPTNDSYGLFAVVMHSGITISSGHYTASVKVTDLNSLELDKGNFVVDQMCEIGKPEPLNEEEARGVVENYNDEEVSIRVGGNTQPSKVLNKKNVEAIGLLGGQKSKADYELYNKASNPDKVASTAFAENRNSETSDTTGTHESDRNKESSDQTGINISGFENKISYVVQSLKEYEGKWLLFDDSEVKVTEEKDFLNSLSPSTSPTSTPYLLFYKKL
Experiment: co-IP; endogenous proteins in RIPA lysates of 143B and HOS cells; precipitated with anti-USP1 antibody (and the reverse Co-IP), protein A/G-agarose, 4 °C; IgG as control; Western blot

binding: binds
Substance: Transcriptional Co-Activator With PDZ-Binding Motif (TAZ) (from UniProt Q9GZV5 1-400)
